Some of the results follow. Further columns of the screen follow, without active or inactive calls. Compounds called inactive in the main read-out are mostly missing here. Words in brackets tell the shape of the fitted curve; partial curves, single points and poor fits give uncertain potencies.
Assay: qHTS Assay for Lipid Storage Modulators in Drosophila S3 Cells;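 as to cell number change: cells counted by Cell Tracker Red CMTPX staining in the red channel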
Conditions: BODIPY lipid droplet fluorescence, 18-24 h; for cell number change: measured here: cell count max response, cells fed with added oleic acid
Outline: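 Drosophila S3 cells loaded with oleic acid (400 uM, as added) and compounds at several concentrations; lipid droplets imaged by 488-nm laser-scanning cytometry, 500–530 nm intensity and object ratio to cell channel. Percent activity normalized to 20 uM Triacsin C.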

[1] = measured here: lipid fluorescence (Fed channel) AC50, cells fed with added oleic acid
[2] = measured here: cell number channel AC50, cells fed with added oleic acid

SMILES	cell number change	AC50 [1]	AC50 [2]
CN(C)c1ccc(C2N(C(=O)N3CCOCC3)CCN2S(=O)(=O)c2ccccc2)cc1 (centres undefined)	4.13%	0.13 µM [falling, full curve, poor fit]	–
CCN(CC)c1ccc(NC(=O)CSc2ccsc2[N+](=O)[O-])c(C)c1	31%	–	13 µM [rising, single point]
OC(CNCc1ccncc1)c1ccccc1 (centres undefined)	4.91%	–	0.00461 µM [rising, full curve, poor fit]
CCOC(=O)c1ccc(Nc2ncnc3nc[nH]c23)cc1	-0.733%	6.51 µM [rising, single point]	–
CC1CCC(C(C)C)C(OC(=O)Cn2c(-c3ccc(F)cc3)[n+](C)c3ccccc32)C1 (centres undefined)	-54.4%	6.51 µM [falling, partial curve]	8.2 µM [falling, partial curve]
COC(=O)c1cn(NC(=O)c2ccccc2[N+](=O)[O-])c(=O)c2ccccc12	76.7%	–	–
Cc1cccc(-c2nc(CS(=O)CC(=O)N3CCN(C)CC3)c(C)o2)c1 (centres undefined)	9.7%	6.51 µM [falling, partial curve, poor fit]	–
COc1ccccc1N1CCN(C(=O)c2ccc3nc[nH]c3c2)CC1	9.29%	–	–
CCC(C)C(=O)Nc1ccc(OC)cc1OC (centres undefined)	–	1.46 µM [falling, partial curve]	–
CC(C)Oc1ccc(C(=O)Nc2ccc(Cl)c(S(=O)(=O)Nc3ccc(Cl)cc3)c2)cc1	12.1%	1.03 µM [rising, partial curve]	1.16 µM [rising, partial curve, poor fit]
O=C(c1cc2ccccc2o1)N1CCN(S(=O)(=O)c2ccc(F)c(F)c2F)CC1	-9.8%	2.91 µM [rising, partial curve]	4.11 µM [rising, single point]
COc1cccc(C(=O)N2CCCc3ccccc32)c1	-1.89%	–	–
O=c1oc2ccccc2c(Nc2ccc(Cl)cc2)c1[N+](=O)[O-]	28.7%	0.731 µM [rising, partial curve, poor fit]	–
COc1cc([C@@H]2c3cc4c(cc3[C@@H](NC3CCN(Cc5ccccc5)CC3)[C@H]3COC(=O)[C@H]23)OCO4)cc(OC)c1O	-13.7%	1.16 µM [falling, partial curve, poor fit]	4.11 µM [falling, partial curve, poor fit]
COc1ccc(C)cc1N(CC(=O)N1CCOCC1)S(C)(=O)=O	-5.87%	16.4 µM [rising, partial curve]	–
CCCCN(C)C(=O)c1cc2c(s1)-c1ccccc1S(=O)(=O)C2	1.94%	–	–
O=C(COc1cccc(C(F)(F)F)c1)N1CCN(c2ccc(O)cc2)CC1	–	29.1 µM [rising, single point]	–
Cc1cc(C)n(-c2nc3ccccc3n3cnnc23)n1	12.5%	4.61 µM [rising, full curve, poor fit]	–
CC(=O)c1ccc(S(=O)(=O)N(C)CCCC(=O)N2CCN(c3ncccn3)CC2)cc1	-0.551%	29.1 µM [rising, single point]	–

Structural class: the compounds so far with nitrogen in an aromatic ring.
SMILES	cell number change	AC50 [1]	AC50 [2]
OC(CNCc1ccncc1)c1ccccc1 (centres undefined)	4.91%	–	0.00461 µM [rising, full curve, poor fit]
CCOC(=O)c1ccc(Nc2ncnc3nc[nH]c23)cc1	-0.733%	6.51 µM [rising, single point]	–
CC1CCC(C(C)C)C(OC(=O)Cn2c(-c3ccc(F)cc3)[n+](C)c3ccccc32)C1 (centres undefined)	-54.4%	6.51 µM [falling, partial curve]	8.2 µM [falling, partial curve]
COC(=O)c1cn(NC(=O)c2ccccc2[N+](=O)[O-])c(=O)c2ccccc12	76.7%	–	–
Cc1cccc(-c2nc(CS(=O)CC(=O)N3CCN(C)CC3)c(C)o2)c1 (centres undefined)	9.7%	6.51 µM [falling, partial curve, poor fit]	–
COc1ccccc1N1CCN(C(=O)c2ccc3nc[nH]c3c2)CC1	9.29%	–	–
Cc1cc(C)n(-c2nc3ccccc3n3cnnc23)n1	12.5%	4.61 µM [rising, full curve, poor fit]	–
CC(=O)c1ccc(S(=O)(=O)N(C)CCCC(=O)N2CCN(c3ncccn3)CC2)cc1	-0.551%	29.1 µM [rising, single point]	–

Continuation.

SMILES	cell number change	AC50 [1]	AC50 [2]
O=C(Nc1cc(F)cc(F)c1)c1sc(Cl)nc1-c1ccccc1	–	6.51 µM [rising, single point]	–
O=C(C(=O)N1CCOCC1)c1cn(CC(=O)N2CCc3ccccc3C2)c2ccccc12	-3.95%	6.51 µM [falling, single point]	–
COc1ccc(NC(=S)N2CCC(NC(=O)c3cccc(F)c3)CC2)cc1	–	0.0651 µM [rising, partial curve, poor fit]	–
CCCC(=O)N1CCN(c2ccc(NC(=O)c3ccc([N+](=O)[O-])o3)cc2)CC1	-33.9%	20.6 µM [falling, partial curve, poor fit]	2.59 µM [rising, single point]
CC1(C)Cc2cccc(OCC(=O)Nc3ccc(OCC(N)=O)cc3)c2O1	2.77%	0.146 µM [falling, full curve, poor fit]	–
Cc1ccc(OCC(=O)NCCCNC(=O)c2ccco2)cc1C	10%	0.651 µM [falling, full curve, poor fit]	–
CC1=C(C#N)C(=O)N(C2CCS(=O)(=O)C2)C(=O)/C1=C\c1ccco1 (centres undefined)	-4.76%	–	–
O=C(O)C1(c2ccccc2)CCN(S(=O)(=O)c2ccc(Cl)cc2)CC1	-21.9%	6.51 µM [falling, partial curve, poor fit]	–
CCCCn1c(CN(C)Cc2ccccc2)nc2c1c(=O)n(C)c(=O)n2C	-66.2%	29.1 µM [falling, single point]	29.1 µM [falling, single point]
COc1cccc(NC(=O)CCNC(=O)Cn2ccc3ccccc3c2=O)c1	–	1.84 µM [falling, partial curve]	2.06 µM [falling, single point]
Cc1ccc(-c2csc(N(CC3CCCO3)C(=O)c3ccco3)n2)cc1 (centres undefined)	9.55%	2.06 µM [rising, partial curve]	–
O=C(Nc1cccc(S(=O)(=O)N2CCOCC2)c1)c1c2c(nc3ccccc13)CCC2	1.55%	29.1 µM [rising, single point]	–
c1ccc(COc2ccc(OCCN3CCCCC3)cc2)cc1	66.7%	–	2.59 µM [falling, single point]
CCN(CC)S(=O)(=O)c1cccc(-c2cn3cc(C)ccc3n2)c1	37.7%	–	4.61 µM [rising, full curve]
C=CCNC(=O)C(=O)Nc1ccc2c(c1)N(S(=O)(=O)c1cccs1)CCC2	55.9%	–	3.66 µM [rising, full curve]
CCOC(=O)C1CCN(C(=O)CN2C(=O)C(C(C)C)Oc3ccccc32)CC1 (centres undefined)	3.91%	–	–
O=C(NCc1cccnc1)c1cccc(S(=O)(=O)Nc2ccc(F)cc2)c1	58.5%	–	2.59 µM [rising, full curve]
COc1ccc(C(=O)Nc2ccnn2C2CCN(C(=O)C3CCOC3)CC2)cc1 (centres undefined)	-21.3%	0.164 µM [falling, full curve]	0.92 µM [falling, full curve, poor fit]
CC(=O)Nc1sc2c(c1C(c1ccccn1)N1CCN(C)CC1)CCCC2 (centres undefined)	0.113%	–	–

A second format for some results above:
SMILES,cell number change,AC50 [1],AC50 [2]
Cc1ccc(-c2csc(N(CC3CCCO3)C(=O)c3ccco3)n2)cc1 (centres undefined),9.55%,"2.06 µM [rising, partial curve]",–
O=C(Nc1cccc(S(=O)(=O)N2CCOCC2)c1)c1c2c(nc3ccccc13)CCC2,1.55%,"29.1 µM [rising, single point]",–

The listing continues.

SMILES	cell number change	AC50 [1]	AC50 [2]
COc1ccc(S(=O)(=O)NCCCn2ccnc2)cc1C(C)(C)C	15%	29.1 µM [falling, single point]	–
Cn1nnc(NC(=O)c2ccccc2F)n1	-4.79%	32.6 µM [falling, single point]	–
CSc1ncccc1C(=O)OCn1nnc2ccccc2c1=O	8.51%	–	0.651 µM [rising, single point]
COc1ccc(Cn2c(SC)nc3ccccc32)cc1[N+](=O)[O-]	142%	29.1 µM [rising, partial curve, poor fit]	29.1 µM [rising, single point]
CN(C)/C=C/c1onc(-c2ccccc2Cl)c1C#N	-45%	25.9 µM [falling, single point]	11.6 µM [falling, partial curve, poor fit]
Cc1ccc(NC(=O)C(NS(=O)(=O)c2cccc3nsnc23)C(C)C)nc1 (centres undefined)	-16.3%	0.651 µM [falling, full curve, poor fit]	0.13 µM [falling, full curve, poor fit]
Cc1c(CCOC(=O)C23CC4CC(CC(C)(C4)C2)C3)sc[n+]1Cc1ccccc1	-36.2%	6.51 µM [falling, full curve]	6.51 µM [falling, partial curve]
CC(/C=C/c1cccc([N+](=O)[O-])c1)=N/NC(=O)c1cccnc1	-33%	–	29.1 µM [falling, single point]
NS(=O)(=O)c1cccc(NC(=O)COC(=O)CN2C(=O)c3ccccc3C2=O)c1	11.3%	18.4 µM [rising, partial curve]	–
Cc1coc2cc3oc(=O)c(Cc4ccccc4)c(C)c3cc12	3%	0.184 µM [rising, full curve, poor fit]	–
OCC[C@@H]1C[C@@H](O)[C@H](O)[C@]2(CCCCO2)O1	22.9%	–	2.91 µM [rising, full curve, poor fit]
Cc1ccc(S(=O)(=O)N2CCCCC2)cc1NC(=O)C1CC(=O)N(Cc2ccco2)C1 (centres undefined)	-2.28%	–	6.51 µM [rising, single point]
C#CC(C)(C)NC(=S)NC1CC2C=CC1C2 (centres undefined)	-21.1%	29.1 µM [falling, single point]	–
COc1ccc2c(c1)C(NC(C)=O)C(=O)N2CCc1ccccc1 (centres undefined)	8.11%	0.82 µM [falling, single point]	–
CC(C)N=C(NS(=O)(=O)c1ccccc1)C(Cl)(Cl)Cl	-31.6%	6.51 µM [rising, single point]	20.6 µM [falling, partial curve, poor fit]
CC(C)c1nc(SCC(=O)NC2CCCC2)c2ccccc2n1	-32.5%	–	23.1 µM [falling, single point]
CC(C)(C)c1ccc(-c2noc(CCC(=O)N3CCOCC3)n2)cc1	-68.7%	16.4 µM [falling, partial curve, poor fit]	16.4 µM [falling, partial curve]
COC(=O)c1ccc(OC)c(-c2c(OC)cc(OC)cc2OC)c1	25.3%	4.61 µM [rising, full curve, poor fit]	–

Source: PubChem BioAssay AID2685 (National Center for Advancing Translational Sciences (NCATS), 2010)
